This is an account of results in PMC12048421.

Protein sequences, listed by entry. Tags and fused reporters are not part of them.
UniProt P61073: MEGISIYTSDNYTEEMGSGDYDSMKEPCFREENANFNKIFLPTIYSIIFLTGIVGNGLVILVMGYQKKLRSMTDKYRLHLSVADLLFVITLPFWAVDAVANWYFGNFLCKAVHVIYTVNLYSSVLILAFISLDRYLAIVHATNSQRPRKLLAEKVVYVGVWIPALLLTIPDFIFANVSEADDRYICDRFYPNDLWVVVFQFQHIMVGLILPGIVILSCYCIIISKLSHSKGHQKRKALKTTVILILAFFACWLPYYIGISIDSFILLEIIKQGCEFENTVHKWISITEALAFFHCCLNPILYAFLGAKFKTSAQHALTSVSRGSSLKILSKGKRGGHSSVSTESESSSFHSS
UniProt O15218: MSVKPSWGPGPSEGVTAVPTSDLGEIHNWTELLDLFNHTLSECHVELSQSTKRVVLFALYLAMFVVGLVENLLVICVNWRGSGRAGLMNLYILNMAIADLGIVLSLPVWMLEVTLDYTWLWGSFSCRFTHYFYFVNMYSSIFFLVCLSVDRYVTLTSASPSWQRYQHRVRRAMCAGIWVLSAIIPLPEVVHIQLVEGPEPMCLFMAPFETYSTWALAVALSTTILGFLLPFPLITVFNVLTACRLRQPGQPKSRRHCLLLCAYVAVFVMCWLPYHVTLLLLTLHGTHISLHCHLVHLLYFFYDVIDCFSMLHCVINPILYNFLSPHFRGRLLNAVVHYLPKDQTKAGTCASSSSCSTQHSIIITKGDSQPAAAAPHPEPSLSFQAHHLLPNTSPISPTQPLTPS

These are yes or no findings as the source states them, for the method shown. Binding seen in cells or lysates may run through a third protein.

The target in this test is human CXCR4, CFP-tagged (hCXCR4-CFP) (human) (UniProt P61073). Kind of test: FRET or BRET; acceptor photobleaching FRET in HEK293T cells transiently cotransfected with a CFP fusion (donor) and a YFP fusion (acceptor); YFP bleached with 514 nm for up to 30 s; confocal microscopy; CXCL12 added to the medium in some samples. Background: Bioluminescence resonance energy transfer reports proximity on the nanometre scale.

On to “human GPR182, YFP-tagged (hGPR182-YFP) (from UniProt O15218 1-404) (receptor)”, for which the binding entry is “no binding”.
